Record: PubChem BioAssay AID493246 (Drosophila RNAi Screening Center, 2011)
In all, the deposit lists about 21,000 reagents; below is a random part of those with a known target gene and a result. In the full data, 429 (2%) got an active call. 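Values are raw and not normalised between plates; calls rest on per-plate z-scores that were not deposited.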 Names joined by + are all predicted targets of the reagent. Not given: the amount of reagent, the time to read-out.

Screen: 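Genome-wide search for dsRNAs that reduce cell number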 (primary screen)
Cell system: Drosophila Kc and S2R+ cells
Reagent: long dsRNA against Drosophila genes
Detection: 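Raw, unnormalised count of remaining cells in each well; per-plate z-scores of cell number underlie the calls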
Direction: Kc cell number and S2R+ cell number: higher = more cells remaining
Hit rule: 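Counted as a hit if cell number falls by a z-score of at least 3 within its plate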

{"gene": "Desat1 (GeneID 117369)", "DRSC id": "DRSC16668", "Kc cell number, rep 1": 5.58e5, "Kc cell number, rep 2": 5.92e5, "S2R+ cell number, rep 1": 1.09e6, "S2R+ cell number, rep 2": 1.20e6, "Call": "active"}
{"gene": "CG5388 (GeneID 42612)", "DRSC id": "DRSC15789", "Kc cell number, rep 1": 1.33e6, "Kc cell number, rep 2": 1.48e6, "S2R+ cell number, rep 1": 1.10e6, "S2R+ cell number, rep 2": 1.11e6, "Call": "inactive"}
{"gene": "CG15642 (GeneID 32476)", "DRSC id": "DRSC19678", "Kc cell number, rep 1": 1.53e6, "Kc cell number, rep 2": 1.49e6, "S2R+ cell number, rep 1": 1.06e6, "S2R+ cell number, rep 2": 1.09e6, "Call": "inactive"}
{"gene": "CG10660 (GeneID 39422)", "DRSC id": "DRSC09769", "Kc cell number, rep 1": 1.47e6, "Kc cell number, rep 2": 1.43e6, "S2R+ cell number, rep 1": 8.73e5, "S2R+ cell number, rep 2": 1.03e6, "Call": "inactive"}
{"gene": "Cyp6a21 (GeneID 36665)", "DRSC id": "DRSC07381", "Kc cell number, rep 1": 1.70e6, "Kc cell number, rep 2": 1.63e6, "S2R+ cell number, rep 1": 1.27e6, "S2R+ cell number, rep 2": 1.34e6, "Call": "inactive"}

Laid out differently: 2 of the entries above
CG15642 (GeneID 32476) [DRSC19678]: Kc cell number, rep 1 = 1.53e6; Kc cell number, rep 2 = 1.49e6; S2R+ cell number, rep 1 = 1.06e6; S2R+ cell number, rep 2 = 1.09e6; Call = inactive
CG10660 (GeneID 39422) [DRSC09769]: Kc cell number, rep 1 = 1.47e6; Kc cell number, rep 2 = 1.43e6; S2R+ cell number, rep 1 = 8.73e5; S2R+ cell number, rep 2 = 1.03e6; Call = inactive

More entries follow:
{"gene": "Ero1L (GeneID 38500)", "DRSC id": "DRSC08660", "Kc cell number, rep 1": 1.33e6, "Kc cell number, rep 2": 1.39e6, "S2R+ cell number, rep 1": 1.25e6, "S2R+ cell number, rep 2": 1.20e6, "Call": "inactive"}
{"gene": "scaf6 (GeneID 3346235)", "DRSC id": "DRSC10075", "Kc cell number, rep 1": 1.41e6, "Kc cell number, rep 2": 1.59e6, "S2R+ cell number, rep 1": 1.25e6, "S2R+ cell number, rep 2": 1.31e6, "Call": "inactive"}
{"gene": "scaf6 (GeneID 3346235)", "DRSC id": "DRSC10676", "Kc cell number, rep 1": 1.80e6, "Kc cell number, rep 2": 1.87e6, "S2R+ cell number, rep 1": 1.31e6, "S2R+ cell number, rep 2": 1.45e6, "Call": "inactive"}
{"gene": "scaf6 (GeneID 3346235)", "DRSC id": "DRSC10678", "Kc cell number, rep 1": 2.03e6, "Kc cell number, rep 2": 2.04e6, "S2R+ cell number, rep 1": 1.22e6, "S2R+ cell number, rep 2": 1.38e6, "Call": "inactive"}
{"gene": "Hsp70Aa + Hsp70Bb + Hsp70Ba + 3 more", "DRSC id": "DRSC15380", "Kc cell number, rep 1": 1.83e6, "Kc cell number, rep 2": 1.84e6, "S2R+ cell number, rep 1": 8.85e5, "S2R+ cell number, rep 2": 1.06e6, "Call": "inactive"}
{"gene": "CG32461 (GeneID 318042)", "DRSC id": "DRSC11594", "Kc cell number, rep 1": 1.56e6, "Kc cell number, rep 2": 1.62e6, "S2R+ cell number, rep 1": 1.16e6, "S2R+ cell number, rep 2": 1.35e6, "Call": "inactive"}
{"gene": "Reg-2 (GeneID 38075)", "DRSC id": "DRSC08690", "Kc cell number, rep 1": 1.26e6, "Kc cell number, rep 2": 1.37e6, "S2R+ cell number, rep 1": 1.08e6, "S2R+ cell number, rep 2": 1.04e6, "Call": "inactive"}
{"gene": "CG4789 (GeneID 32668)", "DRSC id": "DRSC19918", "Kc cell number, rep 1": 1.48e6, "Kc cell number, rep 2": 1.48e6, "S2R+ cell number, rep 1": 1.03e6, "S2R+ cell number, rep 2": 1.12e6, "Call": "inactive"}
{"gene": "CG31231 (GeneID 318638)", "DRSC id": "DRSC13308", "Kc cell number, rep 1": 1.49e6, "Kc cell number, rep 2": 1.44e6, "S2R+ cell number, rep 1": 1.06e6, "S2R+ cell number, rep 2": 1.20e6, "Call": "inactive"}
